The source of these data is PubChem BioAssay AID214 (DTP/NCI, 2004).

This experiment concerns B6C3F1 mice, colon carcinoma 38 s.c., T/C. The experiment can be described thus: NCI In Vivo Anticancer Drug Screen. Data for tumor model Colon Carcinoma 38 (subcutaneous) in B6C3F1 mice. The settings on record: T/C endpoint: median tumor weight (est.), schedule: Q07DX002 (ip), higher T/C = larger tumour; for T/C: evaluated on day 20. How it is done:
The antitumor activity of compounds was measured in mice bearing transplantable tumors. Survival or tumor size were measured and the results are expressed as the measurement made in the treated group (T) divided by the measurement made in the vehicle treated control group (C). The tumor model used in this assay is Colon Carcinoma 38 (subcutaneous) in B6C3F1 mice

Where [1] appears, read: dose: 0.25 mg/kg/injection, vehicle: saline.
The mark [2] stands for this setting: dose: 0.5 mg/kg/injection, vehicle: saline.
Setting [3] is: dose: 200.0 mg/kg/injection, vehicle: saline with Tween-80.
The mark [4] stands for this setting: dose: 800.0 mg/kg/injection, vehicle: Klucel (hydroxypropylcellulose) (HPC).
Setting [5] is: dose: 1600.0 mg/kg/injection, vehicle: Klucel (hydroxypropylcellulose) (HPC).
Setting [6] is: dose: 25.0 mg/kg/injection, vehicle: saline with Tween-80.
The mark [7] stands for this setting: dose: 50.0 mg/kg/injection, vehicle: saline with Tween-80.
Where [8] appears, read: dose: 100.0 mg/kg/injection, vehicle: Klucel (hydroxypropylcellulose) (HPC).
The mark [9] stands for this setting: dose: 400.0 mg/kg/injection, vehicle: Klucel (hydroxypropylcellulose) (HPC).
Setting [10] is: dose: 200.0 mg/kg/injection, vehicle: saline.
Setting [11] is: dose: 1600.0 mg/kg/injection, vehicle: saline with Tween-80.

The list is a part of this screen's results and no random one: it is rich in T/C values a quarter to a half above the control, in often repeated tests (any T/C) and in doses without a T/C. Further doses and runs are listed elsewhere. T/C gives the treated animals as a percentage of the vehicle group. Schedule codes are those of the source, taken here to give the interval after Q, in days (D) or hours (H), and the number of doses after X. Some T/C values carry the count of animals alive at the toxicity check (mostly the fifth day); without a count, all were alive then. Some doses were run more than once; their values stand side by side, smallest first. Additions like (4×) say how often a value occurs here. Some doses have a count of surviving animals in place of a T/C: the source holds a T/C of zero for them, seemingly a mark for toxic or unscored doses. Counts of survivors are from the toxicity check (mostly the fifth day) where no day follows; animals may have died later.

In the case of `CN(C)CCCNc1c2ccccc2nc2cccc([N+](=O)[O-])c12`, the T/C runs as follows: (dose: 0.03 mg/kg/injection, vehicle: saline) 136 % of control; (dose: 0.12 mg/kg/injection, vehicle: saline) 53, 78, 88, 91, 124, 166, 199, 213, 228 % of control; under setting [1], 58 [9 of 10 alive on day 20], 79 [9 of 10 alive on day 20], 116, 139, 162 [8 of 10 alive on day 20], 172 % of control; under setting [2], 76 % of control [9 of 10 alive on day 20]. Moreover, the survivor count reads like this: under setting [1], 0 of 10 on day 20, 2 of 10 on day 20, 6 of 10 on day 20; under setting [2], 0 of 10 on day 20, 1 of 10 on day 20, 2 of 10 on day 20, 5 of 10 on day 20, 6 of 10 on day 20; (dose: 1.0 mg/kg/injection, vehicle: saline) 0 of 10 on day 20 and 1 of 10 on day 20.

On to `N=c1c(C(=O)OCc2ccccc2)ncc(CCl)n1O`, for which, under setting [3], the T/C was 127 % of control.

With `CSc1ncc2ncn(C3OC(CO)C(O)C3O)c2n1` (stereo not given), the survivor count by setting is: under setting [4], 3 of 10 on day 20; under setting [5], 0 of 10 on day 20.

For the compound `C[CH2][Sn]([CH2]C)([CH2]C(=O)OC)[CH2]C(=O)OC`, the survivor count under setting [6] is recorded as 4 of 10 on day 20; the survivor count under setting [7] is reported as 0 of 10 on day 20; the survivor count (dose: 100.0 mg/kg/injection, vehicle: saline with Tween-80) is on record as 0 of 10 on day 20; the survivor count under setting [3] is reported as 0 of 10 on day 20; the survivor count (dose: 400.0 mg/kg/injection, vehicle: saline with Tween-80) is 0 of 10 on day 20.

In the case of `OC(CBr)C(O)C(O)C(O)CBr` (stereo not given), the T/C is 53, 54, 58, 64, 66, 79 (2×), 91, 93 (2×), 120 % of control under setting [8]; 30, 41, 44 (2×), 46, 49, 52, 53 [9 of 10 alive on day 20], 57, 79, 158 % of control (dose: 200.0 mg/kg/injection, vehicle: Klucel (hydroxypropylcellulose) (HPC)); 6, 7 [9 of 10 alive on day 20], 8 [9 of 10 alive on day 20], 19, 24, 28 [9 of 10 alive on day 20], 29, 33 (2×), 69, 81 % of control under setting [9]; 40 % of control [7 of 10 alive on day 20] under setting [4]. The survivor count under setting [4] is reported as 0 of 10 on day 20, 1 of 10 on day 20, 2 of 10 on day 20, 4 of 10 on day 20, 6 of 10 on day 20.

In the case of `O=C(O)C1CC(O)CN1` (stereo not given), the T/C was 149 % of control under setting [10] and 138 % of control [9 of 10 alive on day 20] (dose: 800.0 mg/kg/injection, vehicle: saline).

As to `O=C1SC(c2ccccc2)=S=C1c1ccccc1`, the survivor count under setting [11] is 4 of 10 on day 20.

For `O=C(O)Cc1cccc2c(=O)cc(C3CCCCC3)oc12`, the T/C under setting [10] is 135 % of control.

In the case of `COC1C(CO)OC(n2cnc3c(=S)nc(N)[nH]c32)C1O` (stereo not given), under setting [5], the survivor count is recorded as 6 of 10 on day 20.

Take `Oc1cc2ccccc2c(-c2c(O)c(O)cc3ccccc23)c1O`: the survivor count under setting [11] is reported as 0 of 10 on day 20.

`Cn1cc(C2NC(=O)c3ccccc3N2)c2ccccc21` (stereo not given): the T/C by setting is: under setting [8], 128 % of control; under setting [9], 128 % of control [9 of 10 alive on day 20].

As for `Cc1ccc(NCCN(C)C)c2c(=O)c3cc(O)ccc3sc12`, the T/C under setting [8] is 140 % of control. Moreover, the survivor count under setting [9] was 2 of 10 on day 20.

Turning to `CCN(CC)c1ccc2[nH]c3c(C(N)=O)cc(=O)c(=O)c=3oc2c1`, the T/C is, setting by setting: under setting [6], 130 % of control; under setting [7], 129 % of control.

Turning to `COc1ccc(C(=O)C(CN(C)C)CN(C)C)cc1`, the survivor count was 1 of 10 on day 20 (dose: 50.0 mg/kg/injection, vehicle: saline) and 0 of 10 on day 20 (dose: 100.0 mg/kg/injection, vehicle: saline).

For the compound `O=C(O)c1cc(Cc2ccc(O)c(C(=O)O)c2)ccc1O` (tested in a mixture with another compound), the survivor count under setting [4] is given as 2 of 10 on day 20.
